Measurements published in the supplement of paper PMC3334620.
The full ranking holds about 33,000 sequences; the median of “E-score (-0.5 to 0.5)” is about -8e-05, and the highest 2% start at about 0.23. The list shows a part of the results.

Target: T1, Nrg2 (UniProt P38082)
T1 sequence: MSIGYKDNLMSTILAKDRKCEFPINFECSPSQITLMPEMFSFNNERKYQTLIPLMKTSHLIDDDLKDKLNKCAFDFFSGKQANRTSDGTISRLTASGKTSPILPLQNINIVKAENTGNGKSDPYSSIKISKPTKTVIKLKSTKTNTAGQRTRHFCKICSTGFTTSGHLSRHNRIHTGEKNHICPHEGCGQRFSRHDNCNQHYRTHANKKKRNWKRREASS
Assay: PBM E-score (8-mer binding enrichment) (E-score (-0.5 to 0.5)); higher = stronger / more preferred TF binding
Conditions: protein concentration: 100 nM; construct: GST-full length
Protocol: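 Universal 'all 10-mer' protein binding microarrays (Agilent AMADID 015681) probed with GST-tagged S. cerevisiae TFs (full-length or DBD) made by in vitro transcription/translation (PURExpress), about 100-200 nM. Bound TF was detected with fluorescent anti-GST. Each ungapped 8-mer (which stands for itself and its reverse complement) is scored by the PBM enrichment score (E-score), a modified Wilcoxon-Mann-Whitney statistic from -0.5 to +0.5, computed with the Universal PBM Analysis Suite. Scale: above 0.35 generally sequence-specific binding.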

Row | Sequence | PBM E-score
1 | GCCTAAAA | -0.167
2 | ATCGAAAC | 0.165
3 | GTACCAAC | -0.00125
4 | ACGCTGAC | 0.0741
5 | AATTGAAT | 0.05
6 | CCACCACC | -0.0598
7 | ATCCGCGG | 0.206
8 | CGTGCACG | 0.0265
9 | GTGACCCA | -0.169
10 | CTACCACC | -0.166
11 | ATAATAGA | 0.0769
12 | GATGTTTA | 0.093
13 | CGACCACC | -0.0562
14 | ATACACGA | 0.00107
15 | AAGGTCCT | -0.216
16 | AGACAGGC | -0.00114
17 | CATACATA | 0.219
18 | AATCGAGT | 0.0016
19 | CGATACCC | -0.0215
20 | AATAACGA | 0.139
21 | AGTGTTCG | 0.0585
22 | TCATAACA | 0.0772
23 | CCTTACGA | -0.115
24 | ATCTCTAA | -0.0422
25 | AGAACCCG | 0.0292

Row | Sequence | PBM E-score
26 | TAAAATTA | 0.126
27 | ATTTATCC | 0.247
28 | CACATAGA | -0.0246
29 | CACTCTCA | -0.0203
30 | GAAATTAA | 0.139
31 | GGCGTGGA | -0.104
32 | ACAGATCA | 0.216
33 | CTCCGTTC | -0.0759
34 | TAGCATCA | 0.17
35 | TCCCAAAA | 0.0584
36 | GCATCAGC | 0.00525
37 | AATCTAGC | -0.0305
38 | CACAGACC | 0.16
39 | CAAGCAGG | -0.126
40 | AATCTGAA | 0.105
41 | ACGGCCAA | 0.0172
42 | AGCAACTC | -0.0833
43 | CGTCTCGC | -0.0539
44 | ATCAGACC | 0.0464
45 | GGAAGTCC | -0.0592
46 | GATGTAGC | -0.148
47 | AATGAGCT | 0.127
48 | ATCGCAAC | 0.112
49 | AATATGCA | -0.0794
50 | ACCTCTTA | 0.198

Row | Sequence | PBM E-score
51 | AAAGGCTC | -0.211
52 | TCTCACAA | 0.191
53 | CTGATTCA | 0.0208
54 | GACTATCA | -0.127
55 | ATCAAAAC | 0.0363
56 | CGTCGATA | 0.118
57 | CAGTTGGA | -0.00944
58 | CCCTGATA | 0.125
59 | GAAGAGTC | -0.155
60 | ACGGATGG | -0.128
61 | CATTGCCC | -0.0366
62 | ATGTTAAA | 0.0474
63 | AGTAATCC | -0.0271
64 | AGGGCGAG | -0.151
65 | GCCTCATA | -0.0227
66 | ACGAGGGC | 0.0428
67 | ACTGGTCG | -0.174
68 | GACAGCAA | -0.0262
69 | CGGTAAAG | -0.0886
70 | GATCGCAC | 0.0251
71 | ACTCAAGC | -0.148
72 | ACGATCTA | -0.176
73 | CTGGACCC | 0.275
74 | CATCCCGC | -0.0113
75 | ACTCGCCG | 0.0986

Row | Sequence | PBM E-score
76 | CAGACTCA | -0.0953
77 | GTACACCA | -0.00684
78 | AGCCGCGA | -0.0535
79 | ATACGAGG | -0.0634
80 | CGTCGCGC | 0.0918
81 | GGACGATA | 0.0462
82 | AAACTAGT | 0.109
83 | GATTCCGA | 0.0277
84 | CGCTCTTC | -0.203
85 | AAAGATTA | 0.128
86 | ATGAGCGC | 0.179
87 | GGACAGAA | 0.0661
88 | CCTAACAG | 0.0427
89 | TCGCCTAA | -0.0482
90 | GCTTATTA | 0.132
91 | CATGGCTA | -0.107
92 | ACGTTATG | 0.0787
93 | AGCTCATC | -0.0832
94 | AACTCGAA | 0.0774
95 | CGCAGTAC | -0.0277
96 | GACGGGCA | -0.0837
97 | CTTGCTGC | -0.122
98 | CGTTCAAC | 0.0486
99 | GATGCAAC | -0.0557
100 | TTAAGGAA | -0.0576

From no. 44 up to 74, as listed above:
Row | Sequence | PBM E-score
44 | ATCAGACC | 0.0464
45 | GGAAGTCC | -0.0592
46 | GATGTAGC | -0.148
47 | AATGAGCT | 0.127
48 | ATCGCAAC | 0.112
49 | AATATGCA | -0.0794
50 | ACCTCTTA | 0.198
51 | AAAGGCTC | -0.211
52 | TCTCACAA | 0.191
53 | CTGATTCA | 0.0208
54 | GACTATCA | -0.127
55 | ATCAAAAC | 0.0363
56 | CGTCGATA | 0.118
57 | CAGTTGGA | -0.00944
58 | CCCTGATA | 0.125
59 | GAAGAGTC | -0.155
60 | ACGGATGG | -0.128
61 | CATTGCCC | -0.0366
62 | ATGTTAAA | 0.0474
63 | AGTAATCC | -0.0271
64 | AGGGCGAG | -0.151
65 | GCCTCATA | -0.0227
66 | ACGAGGGC | 0.0428
67 | ACTGGTCG | -0.174
68 | GACAGCAA | -0.0262
69 | CGGTAAAG | -0.0886
70 | GATCGCAC | 0.0251
71 | ACTCAAGC | -0.148
72 | ACGATCTA | -0.176
73 | CTGGACCC | 0.275
74 | CATCCCGC | -0.0113

Continuation:

Row | Sequence | PBM E-score
101 | ACCGTGAG | -0.216
102 | CTAGATCA | 0.0617
103 | AGGAAAGG | -0.33
104 | ACACGAAG | 0.188
105 | AAATGTTC | 0.0373
106 | AACCCATG | 0.0755
107 | ATTCCGCA | -0.00048
108 | CTTTGAGA | 0.0555
109 | CGTTACGC | -0.189
110 | TGCCACAA | 0.0785
111 | CAACATTC | -0.0926
112 | CCCCCTTC | -0.392
113 | CTAAAAGC | -0.194
114 | CCCGAACG | -0.0859
115 | CAAAATGG | 0.119
116 | AGCGCTTC | 0.134
117 | ACCCGGGT | 0.0835
118 | CACTTGGG | -0.0672
119 | TAACGGAA | 0.116
120 | ACGGGACC | -0.121
121 | CTCGAGGA | 0.173
122 | ACATGGTG | -0.00195
123 | AAGAGCAT | -0.0179
124 | AGTATCAG | 0.03
125 | ATGGCAAG | 0.134

Row | Sequence | PBM E-score
126 | CTGATCCC | 0.0429
127 | CTACATAG | 0.0424
128 | CCCCTCGG | -0.145
129 | AGATGGCT | -0.0627
130 | AAGCTCAC | -0.0624
131 | ATTCATTG | 0.00754
132 | GCTTGCGA | 0.0105
133 | ACCACGAC | 0.0976
134 | GCCAATAC | 0.0323
135 | AATCAGGA | -0.0237
136 | AGCTGCCC | 0.137
137 | AGCGTAGA | -0.187
138 | ATAAGTGA | 0.0209
139 | ACAACGGA | 0.242
140 | ATCACATG | -0.0178
141 | GACCCGCC | 0.0656
142 | AAATGCAG | 0.112
143 | AGTTTGCA | -0.0668
144 | GCGCCATA | 0.103
145 | TCTTGCCA | -0.0174
146 | TCAGGGAA | 0.0408
147 | AATGGGTC | -0.0592
148 | CACAGATC | 0.0563
149 | CGTCGTAA | -0.169
150 | CCGATCCC | -0.2

Row | Sequence | PBM E-score
151 | GGCACGAC | -0.0374
152 | AAGATTGG | -0.0354
153 | AAATTCTG | 0.0434
154 | ACCTAGTG | 0.145
155 | CAACTTCC | 0.0253
156 | CACAGCTC | -0.022
157 | AGAGACTA | -0.14
158 | ACCTGTTC | 0.0117
159 | AAAGACAA | 0.194
160 | AACGGTTC | -0.188
161 | CACAGTGA | 0.0466
162 | CATGTGGG | 0.0198
163 | GTCAGTTA | -0.0619
164 | AGCACAAT | 0.129
165 | ACACCATC | 0.0972
166 | GTAATAAA | 0.15
167 | CCGGCAAA | 0.0621
168 | GCACGTTA | -0.0204
169 | ATCTACTG | 0.145
170 | ACCGACGT | 0.112
171 | ACTTGCTC | -0.0835
172 | CATTCACA | 0.107
